Measured data: PubChem BioAssay AID743454 (Peter MacCallum Cancer Centre, 2014)

Screen: 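Search for knock-downs that restore vorinostat killing in resistant colon cancer cells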 (primary screen)
System: human HCT116-VR colon cancer cells, selected for vorinostat resistance
Reagents: siRNA pool against human genes, 40 nM siRNA pool
Time to read-out: vorinostat for 24 h, read-out about 72 h after transfection
Challenge: vorinostat at 2.5 µM final
Measurement: 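Cell viability by CellTiter-Fluor and caspase 3/7 activity by luminescence, each scaled to mock wells per plate, duplicates averaged, then robust z-scored over all plates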
Scale: viability robust z-score: higher = more viable cells than screen typical; caspase robust z-score: higher = more caspase 3/7 activity than screen typical
Hit rule: 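Hits are knock-downs in viability class RV1/RV2 or caspase class CA1/CA2, excluding ones that killed cells in the no-drug cell-count arm; hits then retested with single siRNAs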
This is a random part of about 18,000 reagents. 450 of all reagents (2.5%) were called active. 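Single biological run; no consistent viability z cut-off exists, so the class columns, not z-scores, define the calls.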 The numbers tell different reagents against one gene apart.

no.	gene	pool no.	viability hit class	caspase hit class	viability robust z-score	caspase robust z-score	outcome
1	OAS1	1	no change	no change	0	-0.29	inactive
2	ZBED1	1	no change	no change	-0.69	-0.6	inactive
3	ANKMY1	1	no change	no change	1.83	0.3	inactive
4	DENR	1	no change	no change	-0.08	-0.16	inactive
5	ORAI2	1	no change	no change	-1.58	-0.95	inactive
6	INPP5K	1	no change	CA1 (caspase activation)	-0.52	5.75	active
7	NLRP3	1	no change	no change	1.21	-0.15	inactive
8	ADAM29	1	no change	no change	-2.48	1.26	inactive
9	SPATA9	1	no change	no change	-0.36	-1.08	inactive
10	NUDCD2	1	no change	no change	0.28	-0.52	inactive
11	PTK6	1	no change	no change	0.2	-0.73	inactive
12	GNGT1	1	no change	no change	-1.71	0.2	inactive
13	ULK4	1	no change	no change	-0.34	0.4	inactive
14	BCLAF3	1	no change	no change	-0.12	-0.72	inactive
15	OR5D16	1	no change	no change	0.73	-0.76	inactive
16	MCUR1	1	no change	no change	0.93	0.08	inactive
17	PMM2	1	no change	no change	-1.53	0.52	inactive
18	EGR2	1	no change	no change	-0.64	-0.22	inactive
19	CCL3	1	no change	no change	-0.78	0.7	inactive
20	IFI44	1	no change	no change	0.96	-0.1	inactive
21	OR5K1	1	no change	no change	-0.33	2.51	inactive
22	FAM156A	1	no change	no change	-1.47	-0.36	inactive
23	CACNG1	1	no change	no change	0.21	0.48	inactive
24	COPS5	1	no change	no change	-0.8	1.83	inactive
25	ETNPPL	1	no change	no change	-0.18	-0.45	inactive
26	TPPP	1	no change	no change	-0.97	2.42	inactive
27	CHST12	1	no change	no change	-1.27	2.5	inactive
28	C16orf90	1	no change	no change	0.83	-0.44	inactive
29	GFOD1	1	no change	no change	0.22	0.95	inactive
30	GFOD1	2	no change	no change	0.1	-1.27	inactive
31	C1QB	1	no change	no change	-1.16	0.11	inactive
32	HCFC2	1	no change	no change	0.39	0.08	inactive
33	AGGF1	1	no change	no change	-0.78	-1.42	inactive
34	KCNS2	1	no change	no change	-1.96	0.42	inactive
35	ST3GAL3	1	no change	no change	-1.84	-0.53	inactive
36	RAD51	1	no change	no change	-2.16	0.46	inactive
37	TTC7B	1	no change	no change	0.54	-1.17	inactive
38	STK32A	1	no change	no change	-0.43	-0.64	inactive
39	LY9	1	no change	no change	-1.12	-0.88	inactive
40	AP5M1	1	no change	no change	0.78	-0.84	inactive
41	RXFP4	1	no change	no change	0.34	-0.67	inactive
42	ZNF708	1	no change	no change	0.67	-1.17	inactive
43	CA6	1	no change	no change	0.24	-0.8	inactive
44	TAS2R16	1	no change	no change	-1.25	-1.05	inactive
45	COX11	1	no change	no change	0.28	0.76	inactive
46	AJUBA	1	no change	no change	0.02	0.3	inactive
47	TFAP2C	1	no change	no change	1.01	1.34	inactive
48	PPP2R3A	1	no change	no change	-0.01	0.28	inactive
49	OR5I1	1	no change	no change	0.28	-0.94	inactive
50	TAOK3	1	no change	no change	1.12	-0.94	inactive
51	SCGB2A1	1	no change	no change	1.45	-0.18	inactive
52	MROH7	1	no change	no change	-0.37	-0.4	inactive
53	SAMD4A	1	no change	no change	0.66	-0.6	inactive
54	LSM8	1	no change	no change	-1.5	0.69	inactive
55	OTUD4	1	no change	no change	0.74	-0.26	inactive
56	LRRFIP1	1	no change	no change	0.46	-0.26	inactive
57	MOGAT1	1	no change	no change	0.94	4.26	inactive

Records listed so far whose gene name begins with M or m (3):
gene	pool no.	viability hit class	caspase hit class	viability robust z-score	caspase robust z-score	outcome
MCUR1	1	no change	no change	0.93	0.08	inactive
MROH7	1	no change	no change	-0.37	-0.4	inactive
MOGAT1	1	no change	no change	0.94	4.26	inactive
